# Experimental data from patent publication US20100113421A1, “NON-NUCLEOSIDE REVERSE TRANSCRIPTASE INHIBITORS” (priority 2006, published 2010).
# Read-outs that look alike come from different tables or passages of the source. Some of these results come from one statement about several compounds together.
# Experiments:
# HIV-1 RT enzyme = HIV-1 RT enzyme (Human immunodeficiency virus type 1 group M subtype B, UniProt P04585); experiment: ECL assay for inhibition of HIV reverse transcriptase (wild type); type: biochemical; conditions: read-out: IC50
# [1] = target: T1, HIV reverse transcriptase with Y181C mutation (Human immunodeficiency virus type 1 group M subtype B, UniProt P04585, Y768C); experiment: ECL assay, mutant reverse transcriptase Y181C; type: biochemical
# T1 construct: against mutant HIV reverse transcriptase; made in house
# [2] = read-out: IC50 in the Y181C assay, Y181C mutant RT
# [3] = Y181C mutant RT, read-out: IC50 in the Y181C assay
Compound,IC50 (HIV-1 RT enzyme) [µM],"IC50 [1, 2] [µM]","IC50 [1, 3] [µM]"
"Cc1c(C(=O)N(C)Cc2cc3cccnc3cc2Cl)[nH]c(C(N)=O)c1S(=O)(=O)c1cc(Cl)cc(Cl)c1 [Example 56, N-[(7-chloro-6-quinolinyl)methyl]-4-[(3,5-dichlorophenyl)sulfonyl]-N,3-dimethyl-1H-pyrrole-2,5-dicarboxamide]",< 5,< 8,
"CCCCc1c(C(=O)N(C)Cc2ccc3ncccc3c2)[nH]c(C(N)=O)c1S(=O)(=O)c1cc(C)cc(C)c1 [Example 69, 3-butyl-4-[(3,5-dimethylphenyl)sulfonyl]-N-methyl-N-(6-quinolinylmethyl)-1H-pyrrole-2,5-dicarboxamide]",< 5,,< 8
"Cc1c(C(=O)N(C)Cc2ccccc2Cl)[nH]c(C(N)=O)c1S(=O)(=O)c1cccc(F)c1 [Example 17, N-(2-chlorobenzyl)-N,3-dimethyl-4-(3-fluorophenylsulfonyl)-1H-pyrrole-2,5-dicarboxamide]",< 5,,< 8
"CC(C)c1c(C(=O)N(C)Cc2ccc(Cl)cc2F)[nH]c(C(N)=O)c1S(=O)(=O)c1ccccc1 [Example 62, N-(4-chloro-2-fluorobenzyl)-3-isopropyl-N-methyl-4-(phenylsulfonyl)-1H-pyrrole-2,5-dicarboxamide]",< 5,,< 8
"Cc1c(C(=O)N(C)Cc2ccc(Cl)cc2F)[nH]c(C(N)=O)c1S(=O)(=O)c1cc(F)cc(Cl)c1 [Example 31, N-(4-chloro-2-fluorobenzyl)-N,3-dimethyl-4-(3-chloro-5-fluorophenylsulfonyl)-1H-pyrrole-2,5-dicarboxamide]",< 5,,< 8
"CC(C)c1c(C(=O)N(C)Cc2ccncc2F)[nH]c(C(N)=O)c1S(=O)(=O)c1ccccc1 [Example 110, N2-[(3-fluoropyridin-4-yl)methyl]-3-isopropyl-N2-methyl-4-(phenylsulfonyl)-1H-pyrrole-2,5-dicarboxamide]",< 5,,< 8
"Cc1c(C(=O)N(C)Cc2ccccc2F)[nH]c(C(N)=O)c1S(=O)(=O)c1cc(F)cc(Cl)c1 [Example 29, N-(2-fluorobenzyl)-N,3-dimethyl-4-(3-chloro-5-fluorophenylsulfonyl)-1H-pyrrole-2,5-dicarboxamide]",< 5,,< 8
"Cc1c(C(=O)N(C)Cc2ccc(Cl)cc2Cl)[nH]c(C(N)=O)c1S(=O)(=O)c1cccc(C(F)(F)F)c1 [Example 23, N-(2,4-dichlorobenzyl)-N,3-dimethyl-4-(3-trifluoromethylphenylsulfonyl)-1H-pyrrole-2,5-dicarboxamide]",< 5,,< 8
"CCCCc1c(C(=O)N(C)Cc2ccc3ncccc3c2)[nH]c(C(N)=O)c1S(=O)(=O)c1ccccc1 [Example 66, 3-butyl-N-methyl-4-(phenylsulfonyl)-N-(6-quinolinylmethyl)-1H-pyrrole-2,5-dicarboxamide]",< 5,,< 8
"CC(C)c1c(C(=O)N(C)Cc2ccnc(N)c2)[nH]c(C(N)=O)c1S(=O)(=O)c1cc(F)cc(F)c1 [Example 100, N5-[(2-aminopyridin-4-yl)methyl]-3-[(3,5-difluorophenyl)sulfonyl]-4-isopropyl-N5-methyl-1H-pyrrole-2,5-dicarboxamide]",< 5,,< 8
"COc1ccc2c(c1)CCCN(C(=O)c1[nH]c(C(N)=O)c(S(=O)(=O)c3cc(C)cc(C)c3)c1C)C2 [Example 87, 3-[(3,5-dimethylphenyl)sulfonyl]-4-methyl-5-(7-methoxy-1,3,4,5-tetrahydro-2H-2-benzazepin-2-ylcarbonyl)-1H-pyrrole-2-carboxamide]",< 5,,< 8
"Cc1c(C(=O)N(C)Cc2cc3cccnc3cc2Cl)[nH]c(C(N)=O)c1S(=O)(=O)c1ccccc1 [Example 41, N-[(7-Chloro-6-quinolinyl)methyl]-N,3-dimethyl-4-(phenylsulfonyl)-1H-pyrrole-2,5-dicarboxamide]",< 5,,< 8
Cc1c(C(=O)N2CCCc3sc(S(C)(=O)=O)cc3C2)[nH]c(C(N)=O)c1S(=O)(=O)c1cc(Cl)cc(Cl)c1 [Example 97],< 5,,< 8
Cc1c(C(=O)N(C)Cc2ccc3ncccc3c2)[nH]c(C(N)=O)c1S(=O)(=O)c1cccc(F)c1 [Example 45],< 5,,< 8
"Cc1c(C(=O)N(C)Cc2ccc3ncccc3c2Cl)[nH]c(C(N)=O)c1S(=O)(=O)c1cc(Cl)cc(Cl)c1 [Example 55, N-[(5-chloro-6-quinolinyl)methyl]-4-[(3,5-dichlorophenyl)sulfonyl]-N,3-dimethyl-1H-pyrrole-2,5-dicarboxamide]",< 5,< 8,
CC(C)c1c(C(=O)N(C)Cc2cc(N)ncc2F)[nH]c(C(N)=O)c1S(=O)(=O)c1ccccc1 [Example 104],< 5,,< 8

Compound,IC50 (HIV-1 RT enzyme) [µM],"IC50 [1, 2] [µM]","IC50 [1, 3] [µM]"
"Cc1c(C(=O)N(C)Cc2ccc(Cl)cc2Cl)[nH]c(C(N)=O)c1S(=O)(=O)c1cccc(F)c1 [Example 19, N-(2,4-dichlorobenzyl)-N,3-dimethyl-4-(3-fluorophenylsulfonyl)-1H-pyrrole-2,5-dicarboxamide]",< 5,,< 8
"Cc1cc(C)cc(S(=O)(=O)c2c(C(N)=O)[nH]c(C(=O)N(C)Cc3c(F)cncc3F)c2C)c1 [Example 111, N5-[(3,5-difluoropyridin-4-yl)methyl]-3-[(3,5-dimethylphenyl)sulfonyl]-N5,4-dimethyl-1H-pyrrole-2,5-dicarboxamide]",< 5,,< 8
"Cc1c(C(=O)N(C)Cc2ccccc2)[nH]c(C(N)=O)c1S(=O)(=O)c1cc(F)cc(Cl)c1 [Example 28, N-benzyl-N,3-dimethyl-4-(3-chloro-5-fluorophenylsulfonyl)-1H-pyrrole-2,5-dicarboxamide]",< 5,,< 8
"Cc1c(C(=O)N2CCCc3ccc(O)cc3C2)[nH]c(C(N)=O)c1S(=O)(=O)c1cccc(F)c1 [Example 94, 3-[(3-fluorophenyl)sulfonyl]-4-methyl-5-(8-hydroxy-1,3,4,5-tetrahydro-2H-2-benzazepin-2-ylcarbonyl)-1H-pyrrole-2-carboxamide]",< 5,,< 8
"Cc1cc(C)cc(S(=O)(=O)c2c(C(N)=O)[nH]c(C(=O)N(C)Cc3ccncc3F)c2C)c1 [Example 109, 3-[(3,5-dimethylphenyl)sulfonyl]-N5-[(3-fluoropyridin-4-yl)methyl]-N5,4-dimethyl-1H-pyrrole-2,5-dicarboxamide]",< 5,,< 8
"Cc1cc(C)cc(S(=O)(=O)c2c(C(N)=O)[nH]c(C(=O)N3CCCc4cc(O)ccc4C3)c2C)c1 [Example 88, 3-[(3,5-dimethylphenyl)sulfonyl]-4-methyl-5-(7-hydroxy-1,3,4,5-tetrahydro-2H-2-benzazepin-2-ylcarbonyl)-1H-pyrrole-2-carboxamide]",< 5,,< 8
"CC(C)c1c(C(=O)N(C)Cc2ccncc2Cl)[nH]c(C(N)=O)c1S(=O)(=O)c1ccccc1 [Example 106, N2-[(3-chloropyridin-4-yl)methyl]-3-isopropyl-N2-methyl-4-(phenylsulfonyl)-1H-pyrrole-2,5-dicarboxamide]",< 5,,< 8
"Cc1c(C(=O)N(C)Cc2ccc3ncccc3c2)[nH]c(C(N)=O)c1S(=O)(=O)c1cccc(C(F)(F)F)c1 [Example 46, N,3-dimethyl-N-(6-quinolinylmethyl)-4-{[3-(trifluoromethyl)phenyl]sulfonyl}-1H-pyrrole-2,5-dicarboxamide]",< 5,,< 8
"COc1ccc2c(c1)CN(C(=O)c1[nH]c(C(N)=O)c(S(=O)(=O)c3ccccc3)c1C)CCC2 [Example 91, 3-(phenylsulfonyl)-4-methyl-5-(8-methoxy-1,3,4,5-tetrahydro-2H-2-benzazepin-2-ylcarbonyl)-1H-pyrrole-2-carboxamide]",< 5,,< 8
"Cc1c(C(=O)N(C)Cc2ccc3ncccc3c2)[nH]c(C(N)=O)c1S(=O)(=O)c1cc(F)cc(Cl)c1 [Example 51, 4-[(3-chloro-5-fluorophenyl)sulfonyl]-N,3-dimethyl-N-(6-quinolinylmethyl)-1H-pyrrole-2,5-dicarboxamide]",< 5,,< 8
"Cc1cc(C)cc(S(=O)(=O)c2c(C(N)=O)[nH]c(C(=O)N(C)Cc3ccncc3Cl)c2C)c1 [Example 105, N5-[(3-chloropyridin-4-yl)methyl]-3-[(3,5-dimethylphenyl)sulfonyl]-N5,4-dimethyl-1H-pyrrole-2,5-dicarboxamide]",< 5,,< 8
"Cc1c(C(=O)N(C)Cc2ccc3ncccc3c2Cl)[nH]c(C(N)=O)c1S(=O)(=O)c1cc(F)cc(F)c1 [Example 49, N-[(5-chloro-6-quinolinyl)methyl]-4-[(3,5-difluorophenyl)sulfonyl]-N,3-dimethyl-1H-pyrrole-2,5-dicarboxamide]",< 5,,< 8
"CC(C)c1c(C(=O)N(C)Cc2c(F)cncc2F)[nH]c(C(N)=O)c1S(=O)(=O)c1ccccc1 [Example 112, N2-[(3,5-difluoropyridin-4-yl)methyl]-3-isopropyl-N2-methyl-4-(phenylsulfonyl)-1H-pyrrole-2,5-dicarboxamide]",< 5,,< 8
"Cc1cc(C)cc(S(=O)(=O)c2c(C(N)=O)[nH]c(C(=O)N(C)Cc3cc(Cl)ncc3F)c2C)c1 [Example 113, N5-[(2-chloro-5-fluoropyridin-4-yl)methyl]-3-[(3,5-dimethylphenyl)sulfonyl]-N5,4-dimethyl-1H-pyrrole-2,5-dicarboxamide]",< 5,,< 8
"CCCCc1c(C(=O)N(C)Cc2ccc3ncccc3c2)[nH]c(C(N)=O)c1S(=O)(=O)c1cccc(Cl)c1 [Example 68, 3-butyl-4-[(3-chlorophenyl)sulfonyl]-N-methyl-N-(6-quinolinylmethyl)-1H-pyrrole-2,5-dicarboxamide]",< 5,,< 8
